Laboratory results taken from article PMC10199097, “Molecular mechanism of hyperactivation conferred by a truncation of TRPA1” (Nature Communications, 2023).
No constants are given. Whether binding was seen depends on the method and setting. Binding seen in cells or lysates may run through a third protein. Some entries that bind do so weakly or less than the wild type.

Amino acid sequences for entries named in this document (tags omitted). A change or cut given only in a name is not applied to a line headed by its entry. Residues count along the entry.
UniProt O75762: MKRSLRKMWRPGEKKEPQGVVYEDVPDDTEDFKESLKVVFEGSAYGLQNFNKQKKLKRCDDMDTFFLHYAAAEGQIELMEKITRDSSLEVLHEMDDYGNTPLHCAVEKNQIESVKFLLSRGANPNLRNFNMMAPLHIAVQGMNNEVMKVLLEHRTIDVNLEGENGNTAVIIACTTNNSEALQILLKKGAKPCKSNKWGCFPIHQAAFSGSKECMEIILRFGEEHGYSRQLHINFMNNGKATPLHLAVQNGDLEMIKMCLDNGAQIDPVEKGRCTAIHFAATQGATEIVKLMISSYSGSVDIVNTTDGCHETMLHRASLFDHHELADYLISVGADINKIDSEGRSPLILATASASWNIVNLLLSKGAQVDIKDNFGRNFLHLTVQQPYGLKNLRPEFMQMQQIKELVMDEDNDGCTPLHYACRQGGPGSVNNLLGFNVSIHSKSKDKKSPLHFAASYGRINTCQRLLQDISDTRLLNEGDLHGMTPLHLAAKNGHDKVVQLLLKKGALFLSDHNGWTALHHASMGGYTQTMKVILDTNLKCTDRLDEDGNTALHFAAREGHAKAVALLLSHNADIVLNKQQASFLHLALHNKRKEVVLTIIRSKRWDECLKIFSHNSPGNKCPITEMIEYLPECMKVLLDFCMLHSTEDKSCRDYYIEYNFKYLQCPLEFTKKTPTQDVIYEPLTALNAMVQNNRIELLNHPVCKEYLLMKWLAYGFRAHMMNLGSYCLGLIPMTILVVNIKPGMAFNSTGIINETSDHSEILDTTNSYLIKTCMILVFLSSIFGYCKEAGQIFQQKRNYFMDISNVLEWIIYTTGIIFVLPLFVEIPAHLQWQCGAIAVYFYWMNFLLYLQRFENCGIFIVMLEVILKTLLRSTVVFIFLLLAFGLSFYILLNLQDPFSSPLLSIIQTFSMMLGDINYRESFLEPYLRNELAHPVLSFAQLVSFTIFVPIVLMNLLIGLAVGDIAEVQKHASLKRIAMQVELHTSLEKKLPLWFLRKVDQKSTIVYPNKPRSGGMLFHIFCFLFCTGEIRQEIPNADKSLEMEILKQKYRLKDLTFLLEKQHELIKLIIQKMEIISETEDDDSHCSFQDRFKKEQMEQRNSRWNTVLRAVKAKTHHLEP
Δ1011–1119 human TRPA1 C-terminal truncation: residues 1-1010 of O75762
Δ969–1119 human TRPA1 C-terminal truncation: residues 1-968 of O75762
Δ934–1119 human TRPA1 C-terminal truncation: residues 1-933 of O75762

Columns and labels:
[1] = molecular target: wild type (WT) human TRPA1 (Transient Receptor Potential Ankyrin subtype 1) (human) (UniProt O75762); test: pull-down + native gel or EMSA; Strep-FLAG tandem affinity purification from lysates of HEK293T cells expressing FLAG-MBP- or Strep-MBP-tagged WT or R919* TRPA1; Blue Native PAGE
[2] = molecular target: R919* human TRPA1 mutant (CRAMPT syndrome truncation) (human) (UniProt O75762); test: co-IP + SEC; GFP- and 3×FLAG-tagged subunits co-expressed in HEK293T cells; anti-FLAG immunoprecipitation, eluates analysed by fluorescence size exclusion chromatography (FSEC) of the GFP-tagged subunit; anti-FLAG blot of peak fractions
[3] = molecular target: wild type (WT) human TRPA1 (Transient Receptor Potential Ankyrin subtype 1) (human) (UniProt O75762); test: pull-down + SEC; Ni2+-FLAG tandem purification from cells co-expressing 8xHis-mCerulean-tagged WT and FLAG-mVenus-tagged R919* TRPA1; dual color FSEC
[4] = molecular target: R919* human TRPA1 mutant (CRAMPT syndrome truncation) (human) (UniProt O75762); test: pull-down; amylose pulldown of MBP-tagged bait from lysates of co-transfected cells; 3×FLAG-tagged prey detected by HRP-conjugated anti-FLAG immunoblot
[5] = molecular target: wild type (WT) human TRPA1 (Transient Receptor Potential Ankyrin subtype 1) (human) (UniProt O75762); test: as above
[6] = molecular target: Δ934–1119 human TRPA1 C-terminal truncation (human) (UniProt O75762); test: co-IP; C-terminal truncation co-expressed with WT TRPA1; immunoprecipitation of the truncation (Supplementary Fig. 10a)
[7] = molecular target: Δ969–1119 human TRPA1 C-terminal truncation (human) (UniProt O75762); test: as above
[8] = molecular target: Δ1011–1119 human TRPA1 C-terminal truncation (human) (UniProt O75762); test: as above

Measured: binding

R919* human TRPA1 mutant (CRAMPT syndrome truncation) (from UniProt O75762 1-918) (domain or fragment)
binds: [1] | [2] | [3] | [4] | [5]

wild type (WT) human TRPA1 (Transient Receptor Potential Ankyrin subtype 1) (from UniProt O75762 1-1119)
not listed: [3]
binds: all other assays above
